Measurements reported in PubChem BioAssay AID1259424 (University of Nebraska Medical Center, 2018).
The whole screen tested about 14,000 reagents; below is a part drawn at random. 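Higher correlation or smaller distance means closer resemblance to KSR1 loss; control wells, including KSR1 knockdowns, recur on many plates.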 No sequences are given here. Not stated in the record: the time to read-out.

- Assay: 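Find knockdowns that reproduce the expression shifts seen after KSR1 loss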 (primary screen)
- Cells: human HCT116 colon cancer cells
- Reagents: siRNA pool against human genes, 50 nM
- Measured: 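Six signature mRNAs by branched-DNA multiplex assay, scaled to two housekeeping genes and non-targeting median, log2; matched to mean KSR1 knockdown profile by Pearson correlation and euclidean distance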
- Scale: mean correlation with KSR1 profile and KSR1 correlation: higher = expression change more like KSR1 knockdown; mean distance from KSR1 profile: higher = expression change less like KSR1 knockdown

gene knocked down	mean correlation with KSR1 profile	mean distance from KSR1 profile	KSR1 correlation, replicate 1	KSR1 correlation, replicate 2	KSR1 correlation, replicate 3
CSMD1	-0.401	2.18	-0.274	-0.69	-0.371
VBP1	0.756	2.37	0.74	0.688	0.79
HSP90B1	0.367	2.92	0.583	0.248	0.581
UBE2T	0.0451	3.97	0.116	0.0013	-0.0342
SLC26A10P	0.301	2.41	0.279	0.0617	0.28
TP53TG1	-0.0934	2.34	-0.0593	-0.0349	-0.266
UBE3C	-0.265	1.35	-0.406	-0.246	-0.0612
JKAMP	-0.64	2.53	-0.538	-0.532	-0.587
GPR34	-0.0181	3.04	0.4	0.579	-0.56
PRKAR1A	0.527	2.15	0.629	0.558	0.26
SLC6A20	-0.0765	1.68	0.112	0.0227	-0.171
ADM2	0.622	1.38	0.553	0.6	0.489
PDCD6IP	-0.352	1.76	-0.391	-0.619	-0.295
RMND1	-0.582	3.27	-0.576	-0.559	-0.536
ALDH1L1	-0.0247	3.05	0.196	-0.0587	-0.123
PARP11	-0.418	2.74	-0.413	-0.451	-0.474
CYTH2	-0.268	2.25	-0.148	-0.242	-0.371
SPEF1	0.124	1.48	-0.299	-0.0674	0.45
HSPB7	0.102	1.67	0.298	0.0523	0.0691
NYAP2	-0.724	7.19	-0.0983	-0.606	-0.269
NUDT3	-0.643	1.74	-0.332	-0.502	-0.75
AMY2A	-0.366	1.87	-0.225	-0.422	-0.378
KIF18A	-0.207	1.47	-0.331	-0.292	0.0452
ITPKA	0.509	3.87	0.556	0.744	0.194
PM20D2	0.386	1.24	0.526	0.701	0.252
UBE2W	0.21	0.958	0.53	-0.117	0.104
CD96	-0.108	2.61	-0.0912	-0.0228	-0.385
CSF2RA	0.203	1.28	0.222	-0.14	0.261
NYNRIN	-0.202	4.73	-0.286	-0.196	-0.135
POU6F1	-0.629	1.97	-0.6	-0.672	-0.588
MARCHF2	-0.289	3.18	-0.604	0.115	-0.19
HNRNPH1	0.0504	2.91	0.0173	-0.0798	0.0449
KMO	-0.265	2.43	-0.176	-0.314	-0.269
DNAH6	-0.134	2.16	0.0484	0.244	-0.523
DIAPH3	-0.282	2.1	-0.149	-0.452	-0.494
TSHR	0.192	1.92	0.576	-0.173	0.433
SLC6A12	0.389	1.93	0.227	0.395	0.624
HCCS	-0.348	1.34	-0.416	-0.47	-0.351
AHR	-0.69	1.72	-0.597	-0.478	-0.835
HNRNPUL1	0.0056	3.81	0.566	-0.205	-0.274
OTUD3	0.62	1.22	0.596	0.525	0.686
TRPS1	0.225	2.86	0.0747	0.0199	0.663
ADSS2	-0.317	2.63	-0.232	-0.608	-0.327
CDH4	0.088	2.63	0.279	0.00725	0.251
CAPZB	-0.283	1.68	-0.0256	-0.415	-0.469
CATSPER2	0.379	0.901	0.855	0.286	0.316
NEB	-0.678	3.38	-0.731	-0.613	-0.655
PGR	0.105	1.64	0.11	0.329	-0.126
VWA1	-0.0875	4.22	0	-0.148	-0.196
DCAF8	-0.083	2.89	0.0556	-0.0841	-0.125

Targets listed so far whose gene name begins with N or n:
gene knocked down	mean correlation with KSR1 profile	mean distance from KSR1 profile	KSR1 correlation, replicate 1	KSR1 correlation, replicate 2	KSR1 correlation, replicate 3
NYAP2	-0.724	7.19	-0.0983	-0.606	-0.269
NUDT3	-0.643	1.74	-0.332	-0.502	-0.75
NYNRIN	-0.202	4.73	-0.286	-0.196	-0.135
NEB	-0.678	3.38	-0.731	-0.613	-0.655
